The source of these data is article PMC5983871.

Sequences of proteins named here, by UniProt entry; tags and fusion partners are left off.
UniProt P84077: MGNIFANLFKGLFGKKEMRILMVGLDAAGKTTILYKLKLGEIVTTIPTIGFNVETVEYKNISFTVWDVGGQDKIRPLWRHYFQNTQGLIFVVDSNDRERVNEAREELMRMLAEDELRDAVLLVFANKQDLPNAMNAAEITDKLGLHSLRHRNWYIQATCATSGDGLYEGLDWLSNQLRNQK

The target in the experiment is T1, GST-GGA3 (Golgi associated, gamma-adaptin ear containing, Arf-binding protein 3) (UniProt Q9NZ52).
T1 sequence: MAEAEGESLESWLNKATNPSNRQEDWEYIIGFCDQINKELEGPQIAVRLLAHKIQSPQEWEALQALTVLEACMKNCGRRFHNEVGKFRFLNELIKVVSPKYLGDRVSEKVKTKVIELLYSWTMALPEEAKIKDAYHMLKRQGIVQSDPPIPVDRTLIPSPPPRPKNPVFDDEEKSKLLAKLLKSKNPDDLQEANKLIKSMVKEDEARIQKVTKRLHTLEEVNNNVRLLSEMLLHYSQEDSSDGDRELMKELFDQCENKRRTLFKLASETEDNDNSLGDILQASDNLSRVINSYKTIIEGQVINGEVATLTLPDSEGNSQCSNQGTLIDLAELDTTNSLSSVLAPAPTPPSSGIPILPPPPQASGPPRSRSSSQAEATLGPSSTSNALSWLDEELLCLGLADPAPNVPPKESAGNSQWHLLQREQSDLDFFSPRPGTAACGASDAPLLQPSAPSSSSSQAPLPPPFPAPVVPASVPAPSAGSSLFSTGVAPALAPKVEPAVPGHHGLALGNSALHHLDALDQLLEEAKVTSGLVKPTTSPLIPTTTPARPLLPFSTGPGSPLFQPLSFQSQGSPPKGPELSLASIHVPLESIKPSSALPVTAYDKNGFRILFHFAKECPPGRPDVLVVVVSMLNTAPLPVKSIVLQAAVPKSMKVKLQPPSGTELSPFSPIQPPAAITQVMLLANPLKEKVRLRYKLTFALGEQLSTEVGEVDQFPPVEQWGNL
In words: pull-down; only the target purified.

These are yes or no findings as the source states them, for the method shown. In cells and extracts the contact can be indirect. Some results given as binding are weak or reduced against the parent protein; the word gives no strength. Where a sequence is shown, tags or fusion partners need not be part of it.

For “ADP ribosylation factor 1, GTP-bound (activated) form (from UniProt P84077 1-181)”, the binding entry was “binds”.
